About 22,000 (6.9%) of roughly 320,000 compounds were called active. Inconclusive results, whose numbers are uncertain, are shown with a selection of clear calls. The call rests on the fitted dose curve; in most records, active means well fitted inhibition curve with a large enough effect; inconclusive means small, poorly fitted or top-dose-only effect, or another doubt; inactive means no such curve, though single readings can be large or run the other way. Potencies beside an inconclusive call are fits to weak or partial responses and may not hold up.
Assay: Primary qHTS for delayed death inhibitors of the malarial parasite plastid, 96 hour incubation
Details: P. falciparum luciferase reporter growth; series mostly up to 28.7 µM
Summary of the method: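 Plates of compound plus infected erythrocytes (2% hematocrit, 0.05% parasitemia final) incubate 96 hours, 37 C, 5% CO2. Detection reagent added; reduced luminescence from the parasites' luciferase reporter flags inhibition.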
For `O=C(CN1CCCc2ccccc21)NCCc1ccc(Cl)cc1`, the Potency was inconclusive: 9.28 µM [inhibitor, partial curve, poor fit].
For `CCC(Oc1ccc(Cl)cc1)C(=O)N1CC(=O)Nc2ccccc21` (stereo unspecified), the Potency was inconclusive: 11.7 µM [inhibitor, single point].
For `COc1ccc(CNC(=O)CN(C(=O)c2csnn2)c2cnc3ccccc3c2)cc1`, the Potency was “inactive”.
In the case of `OCC[n+]1c2ccccc2nc2ccc(N3CCOCC3)cc21`, the Potency is reported as active: 0.262 µM.
With `CC(NC(=O)CCCCCCN1C(=O)c2ccccc2C1=O)c1ccc2c(c1)CCCC2` (stereo unspecified) the Potency was inconclusive: 7.38 µM [inhibitor, partial curve].
For `CCCNS(=O)(=O)c1ccc(CCC(=O)N2CCN(c3ccc(F)cc3)CC2)cc1`, the Potency was “inactive”.
For `CCOC(=O)N1CCN(S(=O)(=O)c2cc(OCC)ccc2OCC)CC1`, the Potency was inconclusive: 14.7 µM [inhibitor, single point].
With `S=C(NCc1ccccc1)NCc1cccc(Cl)c1` the Potency was active: 3.7 µM.
For `CC1(C)CC(=O)C=C(NCCc2ccccc2)C1`, the Potency was “inactive”.
With `COc1cc(OC)cc(C(=O)Nc2ccc([N+](=O)[O-])cn2)c1` the Potency was “inactive”.
For `CC(C)(C)c1ccc(S(=O)(=O)N2CCN(CC(=O)N3CC(=O)Nc4ccccc43)CC2)cc1`, the Potency was inconclusive: 5.22 µM [inhibitor, partial curve].
For `N#Cc1c(N)nc2c(c1-c1ccc(F)cc1)c(=O)nc1sccn12`, the Potency was inconclusive: 10.4 µM [inhibitor, single point].
For `COc1cc(CNc2ccc3[nH]c(=O)[nH]c3c2)ccc1OCc1ccc(Cl)cc1`, the Potency was “inactive”.
With `O=C(Nc1ccc(C(=O)N2CCCCC2)cc1)c1ccccc1Cl` the Potency was inconclusive: 16.5 µM [inhibitor, single point].
In the case of `CC1Cc2ccccc2N1c1ncnc2c1nnn2Cc1ccccc1Cl` (stereo unspecified), the Potency is reported as inconclusive: 20.8 µM [inhibitor, single point].
With `N#CC1(NC(=O)COc2ccc(S(=O)(=O)N3CCCC3)cc2[N+](=O)[O-])CCCCC1` the Potency was inconclusive: 9.28 µM [inhibitor, single point].
In the case of `CCOC(=O)c1ccc(NC(=S)NC2CCCC2)cc1`, the Potency is reported as inconclusive: 18.5 µM [inhibitor, single point].
With `Cc1cc(=O)[nH]c2cc(Cl)ccc12` the Potency was inconclusive: 5.22 µM [inhibitor, partial curve].
With `Cc1cc(C)c2[nH]c(=O)c(C(c3nnnn3C(C)(C)C)N(Cc3ccco3)CC3CCCO3)cc2c1` (stereo unspecified) the Potency was active: 1.85 µM.
For `Cc1ccc(NC(=O)c2ccccc2)s1`, the Potency was “inactive”.
With `CCc1cccc2c1NC(=O)C2(O)N1CCCC(C)C1` (stereo unspecified) the Potency was “inactive”.

Reference: PubChem BioAssay AID504834 (National Center for Advancing Translational Sciences (NCATS), 2011)
Potency means the concentration at half of the fitted maximal effect.
